The values that follow come from PMC4742970 (Nature Communications, 2016).

Construct, isoform or probe ends are uncertain for at least one entry.

For the series, the system named is Msh2(HA)-Msh6(3MBD) (Saccharomyces cerevisiae). Nature of the series: EMSA. The conditions noted are these: 1 nM DNA, increased affinity for +8 loop; EMSA: 20 mM HEPES pH 7.5, 100 mM NaCl, 1 mM DTT, 40 ug/ml BSA, 2 mM MgCl2, RT; recombinant protein; protein details: HA tag in Msh2 between residues 644 and 645; label: radiolabel. (In general: In EMSA bound probe runs differently from free probe, usually more slowly.)

With “GGGTCAACGTGGGCAAAGATGTCCTAGCAAGTCAGAATTCGGTAGCGTG / CACGCTACCGAATTCTGACTTGCTAGGTGTGTGTGACATCTTTGCCCACGTTGACCC [+8 loop LS2/LS8]”, the binding result is “binds”.
